We go through two substances from paper doi:10.1101/2020.06.14.145961.

Chains of the proteins cited; added tags and fusions are not shown. Lines headed by an entry give the natural chain unless they say otherwise; changes in a name come on top.
UniProt Q9FIJ0: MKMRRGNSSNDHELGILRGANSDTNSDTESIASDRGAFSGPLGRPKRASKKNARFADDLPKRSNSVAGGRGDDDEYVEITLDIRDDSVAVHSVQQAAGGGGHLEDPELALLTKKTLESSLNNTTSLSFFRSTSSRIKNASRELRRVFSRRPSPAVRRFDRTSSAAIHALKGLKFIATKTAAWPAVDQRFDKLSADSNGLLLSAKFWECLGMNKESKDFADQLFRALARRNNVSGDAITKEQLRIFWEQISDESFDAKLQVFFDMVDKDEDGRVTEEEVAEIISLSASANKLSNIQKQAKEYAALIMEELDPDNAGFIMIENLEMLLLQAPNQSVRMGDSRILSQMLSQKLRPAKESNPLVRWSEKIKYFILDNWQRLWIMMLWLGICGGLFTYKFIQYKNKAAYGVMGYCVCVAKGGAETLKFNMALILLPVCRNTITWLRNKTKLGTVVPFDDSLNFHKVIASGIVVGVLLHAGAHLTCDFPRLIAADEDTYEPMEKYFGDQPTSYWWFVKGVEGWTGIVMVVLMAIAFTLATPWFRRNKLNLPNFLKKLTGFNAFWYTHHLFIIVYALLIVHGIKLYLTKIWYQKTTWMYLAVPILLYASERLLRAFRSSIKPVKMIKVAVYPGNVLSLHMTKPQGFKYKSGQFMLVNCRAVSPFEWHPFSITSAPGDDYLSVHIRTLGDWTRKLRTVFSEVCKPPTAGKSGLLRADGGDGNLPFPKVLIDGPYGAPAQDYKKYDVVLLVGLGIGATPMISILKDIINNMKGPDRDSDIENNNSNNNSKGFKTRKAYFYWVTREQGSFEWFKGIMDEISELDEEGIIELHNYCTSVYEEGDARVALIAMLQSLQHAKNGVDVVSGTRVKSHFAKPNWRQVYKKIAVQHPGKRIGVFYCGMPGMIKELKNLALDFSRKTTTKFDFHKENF
UniProt O48538: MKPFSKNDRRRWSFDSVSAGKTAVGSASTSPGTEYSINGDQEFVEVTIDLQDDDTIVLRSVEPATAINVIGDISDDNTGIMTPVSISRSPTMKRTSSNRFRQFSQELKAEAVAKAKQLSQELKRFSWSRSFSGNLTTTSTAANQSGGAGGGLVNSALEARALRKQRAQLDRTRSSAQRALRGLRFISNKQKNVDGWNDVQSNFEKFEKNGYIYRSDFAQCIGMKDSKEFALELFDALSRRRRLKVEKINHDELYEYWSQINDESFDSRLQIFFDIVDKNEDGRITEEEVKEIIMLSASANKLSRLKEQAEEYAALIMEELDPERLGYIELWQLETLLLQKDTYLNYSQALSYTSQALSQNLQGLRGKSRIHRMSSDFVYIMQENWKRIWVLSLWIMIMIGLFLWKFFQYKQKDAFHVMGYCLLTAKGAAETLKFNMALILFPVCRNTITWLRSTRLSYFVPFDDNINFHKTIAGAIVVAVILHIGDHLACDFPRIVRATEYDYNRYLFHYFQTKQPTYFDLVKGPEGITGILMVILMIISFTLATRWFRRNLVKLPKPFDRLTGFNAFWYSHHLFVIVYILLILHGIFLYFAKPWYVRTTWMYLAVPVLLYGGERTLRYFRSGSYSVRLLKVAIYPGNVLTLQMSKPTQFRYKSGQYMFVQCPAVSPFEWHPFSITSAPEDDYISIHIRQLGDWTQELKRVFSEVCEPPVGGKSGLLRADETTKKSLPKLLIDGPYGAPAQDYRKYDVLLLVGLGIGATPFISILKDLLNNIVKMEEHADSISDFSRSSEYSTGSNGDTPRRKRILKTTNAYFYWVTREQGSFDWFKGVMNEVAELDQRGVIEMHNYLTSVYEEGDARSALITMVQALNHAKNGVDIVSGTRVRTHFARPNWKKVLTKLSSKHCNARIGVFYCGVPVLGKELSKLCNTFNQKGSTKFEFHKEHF
UniProt Q38912: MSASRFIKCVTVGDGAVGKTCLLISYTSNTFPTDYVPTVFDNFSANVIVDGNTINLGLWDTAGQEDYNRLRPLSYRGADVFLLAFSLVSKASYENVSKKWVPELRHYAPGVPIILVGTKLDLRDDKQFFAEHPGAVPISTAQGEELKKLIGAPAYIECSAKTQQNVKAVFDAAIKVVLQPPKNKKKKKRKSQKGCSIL

No constants are given. Whether binding was seen depends on the method and setting. In cells and extracts the contact can be indirect. Some results given as binding are weak or reduced against the parent protein; the word gives no strength.

The target in assay [1] is GFP-RBOHD (RESPIRATORY BURST OXIDASE HOMOLOG PROTEIN D) (Arabidopsis thaliana) (UniProt Q9FIJ0). The assay can be described thus: FRET or BRET.
For assay [2], the target named is GFP-RBOHF (Arabidopsis thaliana) (UniProt O48538). In words: FRET or BRET.

“RFP-ROP6-CA (constitutive active, GTP-locked Rho-of-Plant 6, G15V) (from UniProt Q38912 1-198) (enzyme)”: the binding result in assay [1] and in assay [2] was “binds” in each case.

Regarding “RFP-ROP6-DN (dominant negative, GDP-locked Rho-of-Plant 6, T20N) (from UniProt Q38912 1-198) (enzyme)”, the binding result in assay [1] and in assay [2] was “no binding” each time.
